In experiment [1] the target is NLRP3 (Homo sapiens, UniProt Q96P20). Put plainly: PBMC assay, IL-1β release after LPS stimulation. Particulars: read-out: IL1β IC50; human PBMCs, 100 ng/ml LPS for 6 hrs, IL-1β in supernatant via MSD. It is filed as cell-based.
In experiment [2] the test system is TNF. Put plainly: PBMC assay, TNF cytokine levels after LPS stimulation. Particulars: read-out: TNF EC50; human PBMCs, 100 ng/ml LPS for 6 hrs, TNF in supernatant via MSD.

Protein sequences, listed by entry. Tags and fused reporters are not part of them.
UniProt Q96P20, whole entry: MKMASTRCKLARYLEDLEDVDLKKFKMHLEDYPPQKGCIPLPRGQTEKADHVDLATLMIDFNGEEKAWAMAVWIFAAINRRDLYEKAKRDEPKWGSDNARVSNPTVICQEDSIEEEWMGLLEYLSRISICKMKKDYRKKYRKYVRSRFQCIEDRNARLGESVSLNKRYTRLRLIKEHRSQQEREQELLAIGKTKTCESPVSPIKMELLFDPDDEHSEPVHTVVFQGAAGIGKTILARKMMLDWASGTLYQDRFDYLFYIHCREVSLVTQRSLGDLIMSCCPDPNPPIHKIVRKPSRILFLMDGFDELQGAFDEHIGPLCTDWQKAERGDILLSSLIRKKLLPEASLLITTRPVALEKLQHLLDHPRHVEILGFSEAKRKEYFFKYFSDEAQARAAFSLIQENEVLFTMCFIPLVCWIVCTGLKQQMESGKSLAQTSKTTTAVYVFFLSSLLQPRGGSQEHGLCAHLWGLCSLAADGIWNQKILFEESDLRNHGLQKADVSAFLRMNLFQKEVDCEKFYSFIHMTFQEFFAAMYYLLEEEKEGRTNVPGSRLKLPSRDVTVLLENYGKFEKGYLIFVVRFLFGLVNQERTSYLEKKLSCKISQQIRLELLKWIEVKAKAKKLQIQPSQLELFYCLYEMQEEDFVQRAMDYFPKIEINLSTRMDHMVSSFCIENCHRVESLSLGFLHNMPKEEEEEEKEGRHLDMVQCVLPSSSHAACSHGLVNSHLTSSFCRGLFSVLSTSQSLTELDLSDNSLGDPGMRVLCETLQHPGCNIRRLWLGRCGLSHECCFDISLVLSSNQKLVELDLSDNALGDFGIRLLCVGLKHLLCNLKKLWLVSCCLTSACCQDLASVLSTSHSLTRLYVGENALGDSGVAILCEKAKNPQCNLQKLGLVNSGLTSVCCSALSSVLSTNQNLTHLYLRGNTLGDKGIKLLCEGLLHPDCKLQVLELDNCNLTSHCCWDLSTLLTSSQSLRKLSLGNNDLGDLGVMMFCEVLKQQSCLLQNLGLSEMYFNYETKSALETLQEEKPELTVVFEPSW

Structures were worked out from names or drawings and are uncertain.

Usually IC50 stands for the concentration needed to halve the response being measured. As a reminder, the EC50 is the concentration giving half of the maximal effect. With `CC(C)c1nn(CC(=O)Nc2ncco2)c(=O)c2cc3ccccc3n12`, the IC50 in experiment [1] was 840 nM. In experiment [2], the concentration for a half-maximal effect (EC50) is greater than 10000 nM.

For the compound `CCc1nn(CC(=O)NC2CC2)c(=O)c2cc3ccccc3n12`, the 50% inhibitory concentration (IC50) in experiment [1] is 660 nM. In experiment [2], the half-maximal effective concentration (EC50) was greater than 10000 nM.

`CC(C)c1nn(CC(=O)Nc2ccc3nncn3c2)c(=O)c2cc3ccccc3n12`: in experiment [2], the EC50 is greater than 20000 nM.

Source of the values: patent publication US20230183249A1, “NEW TRIAZINOINDOLE COMPOUNDS” (JANSSEN PHARMACEUTICA NV, priority 2020, published 2023).
